Values from PubChem BioAssay AID504774 (Drosophila RNAi Screening Center, 2011)

- Assay: 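Genes required for cells to withstand methyl methanesulphonate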 (primary screen)
- System: Drosophila Kc167 cells
- Reagent: long dsRNA against Drosophila genes, about 0.25 µg dsRNA per well
- Timing: about 6 days: 3 days knock-down, then 3 days with or without MMS
- Challenge: methyl methanesulphonate 0.004% (w/v) for 3 days after knock-down
- Detection: 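Viability in wells given MMS, read as ATP luminescence, normalised by quantiles plate by plate and averaged across replicates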
- Direction: mean viability with MMS and viability with MMS: higher = more surviving cells after MMS
The deposit covers about 23,000 reagents; below is a random part of those that have a named target and a result. 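Values are quantile-normalised luminescence on an arbitrary scale; higher means more cells surviving MMS.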 The numbers tell different reagents against one gene apart. Names joined by + are all predicted targets of the reagent.

predicted target | reagent | mean viability with MMS | viability with MMS, replicate 1 | viability with MMS, replicate 2
CG7707 | 1 | 3.41e6 | 3.84e6 | 3.83e6
Tengl4 | 1 | 3.51e6 | 4.03e6 | 3.94e6
CG6013 | 1 | 3.75e6 | 4.21e6 | 4.22e6
trus | 1 | 3.46e6 | 3.96e6 | 3.92e6
gny | 1 | 3.65e6 | 4.34e6 | 3.98e6
CG18284 | 1 | 3.60e6 | 3.86e6 | 4.34e6
CG18284 | 2 | 2.45e6 | 4.10e6 | 4.04e6
lncRNA:CR32660 | 1 | 3.33e6 | 3.79e6 | 3.94e6
CG32269 + CG32270 | 1 | 3.49e6 | 3.96e6 | 3.97e6
CG14419 | 1 | 3.49e6 | 4.02e6 | 3.91e6
Esyt2 | 1 | 3.59e6 | 4.09e6 | 4.05e6
Mapmodulin | 1 | 3.61e6 | 4.16e6 | 4.04e6
Pfas | 1 | 3.64e6 | 4.14e6 | 4.15e6
CG18095 | 1 | 3.59e6 | 4.09e6 | 4.04e6
Noa36 | 1 | 3.58e6 | 3.99e6 | 4.13e6
Kpc1 | 1 | 3.44e6 | 3.81e6 | 3.95e6
CG12105 | 1 | 3.57e6 | 4.10e6 | 3.99e6
Trf2 | 1 | 3.71e6 | 5.06e6 | 3.37e6
CG4042 | 1 | 3.69e6 | 4.24e6 | 4.06e6
CG1394 | 1 | 3.22e6 | 3.75e6 | 3.76e6
CG32243 | 1 | 3.46e6 | 4.01e6 | 3.82e6
Nopp140 | 1 | 3.41e6 | 3.75e6 | 3.92e6
CG1628 | 1 | 3.43e6 | 3.86e6 | 3.91e6
Tdc1 | 1 | 3.42e6 | 3.98e6 | 3.74e6
Hacl | 1 | 3.53e6 | 4.02e6 | 3.98e6
smp-30 | 1 | 3.62e6 | 4.13e6 | 4.11e6
CG9967 | 1 | 3.38e6 | 3.78e6 | 3.76e6

Continued; the last 4 above are carried over.
predicted target | reagent | mean viability with MMS | viability with MMS, replicate 1 | viability with MMS, replicate 2
Tdc1 | 1 | 3.42e6 | 3.98e6 | 3.74e6
Hacl | 1 | 3.53e6 | 4.02e6 | 3.98e6
smp-30 | 1 | 3.62e6 | 4.13e6 | 4.11e6
CG9967 | 1 | 3.38e6 | 3.78e6 | 3.76e6
CG7465 | 1 | 3.81e6 | 4.28e6 | 4.33e6
CG7465 | 2 | 3.59e6 | 4.05e6 | 4.06e6
CG42402 | 1 | 3.52e6 | 4.06e6 | 3.94e6
Cpr51A | 1 | 3.50e6 | 3.95e6 | 4.04e6
Dcr-2 | 1 | 3.58e6 | 4.20e6 | 3.91e6
Crz | 1 | 3.70e6 | 4.15e6 | 4.26e6
CG5953 | 1 | 3.45e6 | 3.94e6 | 3.90e6
CG5953 | 2 | 2.95e6 | 3.53e6 | 3.59e6
CG4704 | 1 | 3.56e6 | 4.09e6 | 3.99e6
CG16965 | 1 | 3.58e6 | 4.16e6 | 3.95e6
Ip259 | 1 | 3.33e6 | 3.86e6 | 3.62e6
CG13121 (retired record) | 1 | 3.62e6 | 4.15e6 | 4.06e6
SAK | 1 | 3.49e6 | 3.95e6 | 3.94e6
SAK | 2 | 3.70e6 | 4.18e6 | 4.22e6
Cul4 | 1 | 3.35e6 | 3.81e6 | 3.76e6
nocte | 1 | 3.66e6 | 4.20e6 | 4.32e6
UbcE2M | 1 | 3.30e6 | 3.78e6 | 3.76e6
CG3909 | 1 | 3.43e6 | 3.89e6 | 3.94e6
scaf | 1 | 3.37e6 | 3.84e6 | 3.78e6
